Results are given in words; binding and its absence hold for the method and conditions named. For some assays here: In cells and extracts the contact can be indirect. Some entries that bind do so weakly or less than the wild type. Tags and fused reporters may be left off the sequences shown.

The values that follow come from PMC9976406, “ANGPTL2 binds MAG to efficiently enhance oligodendrocyte differentiation” (Cell & Bioscience, 2023).

Assay [1] addresses T1, murine MAG, full-length, fused with EGFP (N1-mMAG-EGFP) (murine) (UniProt P20917).
T1 sequence: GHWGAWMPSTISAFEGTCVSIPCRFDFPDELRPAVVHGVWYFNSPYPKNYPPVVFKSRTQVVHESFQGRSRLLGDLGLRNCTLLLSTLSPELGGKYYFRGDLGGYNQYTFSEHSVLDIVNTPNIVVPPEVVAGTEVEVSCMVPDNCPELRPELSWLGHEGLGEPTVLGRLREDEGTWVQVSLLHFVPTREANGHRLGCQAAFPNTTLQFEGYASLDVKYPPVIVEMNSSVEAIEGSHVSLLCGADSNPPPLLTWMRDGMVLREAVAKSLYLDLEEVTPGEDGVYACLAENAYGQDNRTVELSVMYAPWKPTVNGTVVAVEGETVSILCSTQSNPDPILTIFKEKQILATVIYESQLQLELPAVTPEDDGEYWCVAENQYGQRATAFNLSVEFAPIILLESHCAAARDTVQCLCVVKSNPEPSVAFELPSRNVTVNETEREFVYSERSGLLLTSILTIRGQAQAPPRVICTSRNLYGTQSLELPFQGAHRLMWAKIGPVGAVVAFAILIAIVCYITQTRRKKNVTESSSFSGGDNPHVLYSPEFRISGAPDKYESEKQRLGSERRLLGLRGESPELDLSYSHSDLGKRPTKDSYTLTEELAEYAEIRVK
The experiment in a line: flow cytometry on cells; 293T cells transfected with MAG-GFP plasmids, collected after 48 h, incubated with ANGPTL2-Flag (or other ANGPTL) conditioned medium at 4 °C for 1-2 h, then anti-Flag-APC and PI; binding read in EGFP+ cells.

For assay [2], the target named is T2, murine MAG-ECD-Fc (extracellular domain of murine MAG fused with human Fc) (murine) (UniProt P20917).
T2 sequence: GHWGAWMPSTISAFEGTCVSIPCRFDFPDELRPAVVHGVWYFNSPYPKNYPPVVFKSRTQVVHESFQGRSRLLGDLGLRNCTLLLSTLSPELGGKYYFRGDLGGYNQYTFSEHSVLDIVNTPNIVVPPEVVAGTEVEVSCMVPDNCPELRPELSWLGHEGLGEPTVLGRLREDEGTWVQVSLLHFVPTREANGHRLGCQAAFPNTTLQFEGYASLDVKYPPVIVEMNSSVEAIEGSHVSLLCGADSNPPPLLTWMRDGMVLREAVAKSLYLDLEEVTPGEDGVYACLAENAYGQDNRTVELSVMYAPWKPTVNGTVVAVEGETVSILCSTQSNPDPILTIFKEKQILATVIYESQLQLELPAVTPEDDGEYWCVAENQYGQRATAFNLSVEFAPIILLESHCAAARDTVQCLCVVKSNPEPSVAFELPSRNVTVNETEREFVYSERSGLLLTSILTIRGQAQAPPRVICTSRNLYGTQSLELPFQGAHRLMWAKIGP
Put plainly: co-IP; MAG-ECD-Fc and ANGPTL2-strep II co-transfected in 293T; supernatant incubated with Protein A/G beads at 4 °C for 8 h, washed with PBS with 0.1% NP-40 5 times; blots with anti-strepII or anti-Fc.

B1: ANGPTL2-Flag (angiopoietin-like protein 2) (ligand, UniProt Q9UKU9 23-493, looked up)
chain: QEDGFEGTEEGSPREFIYLNRYKRAGESQDKCTYTFIVPQQRVTGAICVNSKEPEVLLENRVHKQELELLNNELLKQKRQIETLQQLVEVDGGIVSEVKLLRKESRNMNSRVTQLYMQLLHEIIRKRDNALELSQLENRILNQTADMLQLASKYKDLEHKYQHLATLAHNQSEIIAQLEEHCQRVPSARPVPQPPPAAPPRVYQPPTYNRIINQISTNEIQSDQNLKVLPPPLPTMPTLTSLPSSTDKPSGPWRDCLQALEDGHDTSSIYLVKPENTNRLMQVWCDQRHDPGGWTVIQRRLDGSVNFFRNWETYKQGFGNIDGEYWLGLENIYWLTNQGNYKLLVTMEDWSGRKVFAEYASFRLEPESEYYKLRLGRYHGNAGDSFTWHNGKQFTTLDRDHDVYTGNCAHYQKGGWWYNACAHSNLNGVWYRGGHYRSRYQDGVYWAEFRGGSYSLKKVVMMIRPNPNTFH
notes: angiopoietin-like protein 2 (ANGPTL2), secreted into the conditioned medium of 293T cells; The same ANGPTL2-Flag was used on human and murine MAG; also called purified ANGPTL2 protein; source: 293T, transfected with CMV-ANGPTL2-Flag; conditioned medium collected after 48 h, or purified from it with M2 resin
Consider B1, for which, in assay [1], the binding entry was “binds”.

B2: ANGPTL2-strep II (ligand, UniProt Q9UKU9 23-493)
chain: B1 chain
Regarding B2, in assay [2], the binding result is “binds”.
